The record followed here is article PMC5072591.

The target in the experiment is Fertilization Independent Endosperm 2 (OsFIE2) (rice (Oryza sativa)). Nature of the experiment: two-hybrid; yeast two-hybrid (Clontech); bait in pGBKT9, prey in pGADT7, reciprocal constructs also made; control media -LT, selective media -LTHA plus X-alpha-gal.

Results are given in words; binding and its absence hold for the method and conditions named.

B1: OsCLF (protein, UniProt Q5VN06 1-896)
chain: MAGDSRNEPMFCEEGSSESGYVLCVIDSLKKKITSDRFVYIQKRVEENSIKLSPITLHSHNLSKNRQTSTSNSTDLVSNLLTKRKEDALCAVNSRESSPDESEGANCQDECSSTVIVGGNLSARNSVRPIRLPEVATLPPYTTWIFLDRNQRMQEDQSVLGRRRIYYDTNCGEALICSDSEDEAVEDEEEKKEFKDSEDCIIRMTIQECGMSDAVLETLARDIERAPDDIKARYEILQGEKPEGSSKKVSELNVKMEDVYGDKDLDAALDSFDNLFCRRCLVFDCKLHGCSQDLVFPTEKQAPLCSSDEGTPCGIHCYKLVSKPDAIMEIDSHLLVDVEEPTSDNLKDQIGSNKKKLGSSGQKTKSQQSESSSTARVSSESSESEVQLLSNKSPQHSPGLSKNKLGAKGGIKKSTNRRIAERILMSVKKGQQEMSPDSNSIVNGCHWPRDMKLRSDTRSGIKDSVVSSQCNSPSTRSFRKKGTLQMENNSSFVDAQSDSMEDTNNEHSATDGCDSSRKEECVDESICRQEAHGRSWKVIEQGLLLKGLEIFGKNSCLIARNLLGGMKTCTDVFQYMNYIENSSASGALSGVDSLVKGYMKGNELRTRSRFVRRRGRVRRLKYTWKTAGYHFIRKRITERKDQPCRQYTPCGCQSACGKQCPCLTNGTCCEKYCGCPKMCKNRFRGCHCAKSQCRSRQCPCFAADRECDPDVCRNCWVGCGDGTLGVPNQRGDNYECRNMKLLLKQQQRVLLGRSDVSGWGAFLKNSVGKHEYLGEYTGELISHKEADKRGKIYDRENSSFLFNLNNEYVLDAYRMGDKLKFANHSPDPNCYAKVIMVAGDHRVGIFAKERISAGEELFYDYRYEPDRAPAWARKPEGPGAKDDAQPSTGRAKKLAH
Take B1: the binding entry is given as “no binding”.
